Reference: patent EP0904128B1, “COMPOSITION AND SYSTEM FOR IONTOPHORETIC TRANSDERMAL DELIVERY OF DRUGS” (priority 1996, dated 1997)

Conditions: phosphate-buffer 6 mM, pH 7,4, 37 °C

Nc1c2c(nc3ccccc13)CCCC2 [tacrine, 9-amino-1,2,3,4-tetrahydroacridine]
tacrine released from the fiber (after initial burst of about 6 - 12 h): 50% | Tacrine release rate from the cationic ion-exchange fiber (during the first 10 hours): about 375 g/h per cm^2
